Results on 27 molecules are retold here after the supplement of paper PMC11348887.

Counter-ions that a name gives are not always drawn. Some of the results follow. Most entries show no effect beyond the scatter of the controls.

Details in all cases: 5 µM; treatment: days 7-14 after plating, readout day 21
The subject of assay [1] is hPSC-derived cortical neurons (WA09). Put plainly: nucleus area z-score vs screen plate; higher = larger nuclei (more mature).
For assay [2] the test system is unchanged. Put plainly: total neurite length per nucleus (MAP2) z-score; higher = more neurite growth.
The test system is the same in assay [3]. Put plainly: nucleus roundness z-score vs screen plate; higher = rounder nuclei (more mature).
For assay [4] the test system is unchanged. Put plainly: KCl-induced FOS+/EGR-1+ double-positive nuclei fraction z-score (KCl minus unstimulated); higher = stronger activity-induced IEG response.

Molecule `Cn1nnc2c(C(N)=O)ncn2c1=O` [Temozolomide] registered a nucleus area z-score in assay [1] of -2.86. For the same molecule, in assay [2], the “total neurite length per nucleus (z-score)” value is -0.701. Moreover, in assay [3], the nucleus roundness z-score was -1.31. For the same molecule, the “KCl-induced FOS+/EGR-1+ double-positive nuclei fraction z-score” value in assay [4] is -0.578.

The molecule `C[N+]1(C)[C@@H]2CC[C@H]1C[C@@H](OC(=O)C(O)c1ccccc1)C2` (stereo partly drawn) [Homatropine Methylbromide] showed a nucleus area z-score in assay [1] of -0.0318. In addition, the “total neurite length per nucleus (z-score)” value in assay [2] was 0.244. Moreover, the nucleus roundness z-score in assay [3] was 0.978. Besides, the “KCl-induced FOS+/EGR-1+ double-positive nuclei fraction z-score” value in assay [4] was -2.33.

`Cc1cc(C)c(/C=C2\C(=O)Nc3ccccc32)[nH]1` [Semaxanib (SU5416)] had a nucleus area z-score in assay [1] of 0.9. In addition, the “total neurite length per nucleus (z-score)” value in assay [2] is -0.845. Moreover, the nucleus roundness z-score in assay [3] is -0.745. In addition, the “KCl-induced FOS+/EGR-1+ double-positive nuclei fraction z-score” value in assay [4] was -0.286.

`Cc1cc(C)c(S(=O)(=O)n2cc(C)cc2C)c(C)c1`: in assay [1], the nucleus area z-score was -0.607. Moreover, the “total neurite length per nucleus (z-score)” value in assay [2] worked out at 0.535. For the same molecule, in assay [3], the nucleus roundness z-score came out at 0.352. Besides, the “KCl-induced FOS+/EGR-1+ double-positive nuclei fraction z-score” value in assay [4] came out at 1.08.

`COC(=O)C1=C(C)NC(C)=C(C(=O)OC)C1c1ccccc1[N+](=O)[O-]` [Nifedipine]: the nucleus area z-score in assay [1] is -0.352. For the same molecule, in assay [2], the “total neurite length per nucleus (z-score)” value was determined as 0.701. The molecule further showed a nucleus roundness z-score in assay [3] of -0.207. For the same molecule, the “KCl-induced FOS+/EGR-1+ double-positive nuclei fraction z-score” value in assay [4] is -0.112.

`CCOC(=O)O[C@]1(C(=O)OCCl)CC[C@H]2[C@@H]3CCC4=CC(=O)C=C[C@]4(C)[C@H]3[C@@H](O)C[C@@]21C` [Loteprednol etabonate] registered a nucleus area z-score in assay [1] of -0.276. Also, the “total neurite length per nucleus (z-score)” value in assay [2] came out at 0.0728. The molecule also had a nucleus roundness z-score in assay [3] of -0.559. In addition, the “KCl-induced FOS+/EGR-1+ double-positive nuclei fraction z-score” value in assay [4] is -0.344.

`Cc1cc(Nc2ncc(Cl)c(Nc3ccccc3S(=O)(=O)C(C)C)n2)c(OC(C)C)cc1C1CCNCC1` showed a nucleus area z-score in assay [1] of -16.1. Moreover, the “total neurite length per nucleus (z-score)” value in assay [2] is -4.56. In assay [3], this molecule showed a nucleus roundness z-score of -2.94. In assay [4], the “KCl-induced FOS+/EGR-1+ double-positive nuclei fraction z-score” value is -0.894.

In assay [1], `CNS(=O)(=O)Nc1nccc(Cc2c(C)c3ccc(Oc4ncccn4)cc3oc2=O)c1F` gave a nucleus area z-score of 1.38. Further, in assay [2], the “total neurite length per nucleus (z-score)” value turned out to be 0.847. For the same molecule, the nucleus roundness z-score in assay [3] came out at 0.959. The “KCl-induced FOS+/EGR-1+ double-positive nuclei fraction z-score” value in assay [4] came out at 0.0432.

Molecule `CS(=O)(=O)Nc1ccc([N+](=O)[O-])cc1Oc1ccccc1` [Nimesulide] gave a nucleus area z-score in assay [1] of 0.257. Also, the “total neurite length per nucleus (z-score)” value in assay [2] is 0.0292. Besides, in assay [3], the nucleus roundness z-score was 0.336. For the same molecule, the “KCl-induced FOS+/EGR-1+ double-positive nuclei fraction z-score” value in assay [4] was 0.226.

The molecule `CN(C)C(=O)[C@H](O)[C@H](Cc1ccccc1)NC(=O)c1cc2cc(Cl)ccc2[nH]1` returned a nucleus area z-score in assay [1] of 1.26. Moreover, the “total neurite length per nucleus (z-score)” value in assay [2] turned out to be 1.37. Besides, the nucleus roundness z-score in assay [3] was determined as 1.89. The “KCl-induced FOS+/EGR-1+ double-positive nuclei fraction z-score” value in assay [4] was found to be 1.32.

In the case of `Nc1nccc2c1ncn2C1C=C(CO)C(O)C1O` (stereo not drawn) [3-Deazaneplanocin A (DZNeP)], the nucleus area z-score in assay [1] was determined as 1.44. In addition, in assay [2], the “total neurite length per nucleus (z-score)” value was -0.517. In addition, in assay [3], the nucleus roundness z-score is -0.993. Besides, the “KCl-induced FOS+/EGR-1+ double-positive nuclei fraction z-score” value in assay [4] was -0.667.

`Oc1cccc(-c2nc(N3CCOCC3)c3oc4ncccc4c3n2)c1` displayed a nucleus area z-score in assay [1] of -0.604. The “total neurite length per nucleus (z-score)” value in assay [2] is 0.293. For the same molecule, the nucleus roundness z-score in assay [3] is 0.399. Further, the “KCl-induced FOS+/EGR-1+ double-positive nuclei fraction z-score” value in assay [4] is 0.221.

Consider `C[N+](C)(C)NCCC(=O)[O-]` [Mildronate], for which, in assay [1], the nucleus area z-score amounted to 1.52. Besides, the “total neurite length per nucleus (z-score)” value in assay [2] stood at 0.273. For the same molecule, the nucleus roundness z-score in assay [3] was 0.852. For the same molecule, the “KCl-induced FOS+/EGR-1+ double-positive nuclei fraction z-score” value in assay [4] is 0.18.

`NCCS(=O)(=O)O` [Taurine] displayed a nucleus area z-score in assay [1] of 0.215. Besides, the “total neurite length per nucleus (z-score)” value in assay [2] was found to be 0.639. For the same molecule, the nucleus roundness z-score in assay [3] turned out to be 0.309. In assay [4], the “KCl-induced FOS+/EGR-1+ double-positive nuclei fraction z-score” value is -0.0515.

Molecule `O=C(Nc1ccccc1)OCC(CN1CCCCC1)OC(=O)Nc1ccccc1` (stereo not drawn) [Diperodon HCl] yielded a nucleus area z-score in assay [1] of -0.559. In addition, the “total neurite length per nucleus (z-score)” value in assay [2] was -0.913. The nucleus roundness z-score in assay [3] is -0.0582. The “KCl-induced FOS+/EGR-1+ double-positive nuclei fraction z-score” value in assay [4] was 0.166.

Regarding `CCOC(=O)c1ccc(NC(=O)O[C@H]2[C@H](OC(=O)Nc3ccc4c(c3)OCO4)[C@@H](OC(=O)Nc3ccc4c(c3)OCO4)[C@@H](OC)O[C@@H]2CO)cc1`, the nucleus area z-score in assay [1] worked out at 0.676. Besides, the “total neurite length per nucleus (z-score)” value in assay [2] was 0.559. Moreover, the nucleus roundness z-score in assay [3] was determined as 0.299. In addition, in assay [4], the “KCl-induced FOS+/EGR-1+ double-positive nuclei fraction z-score” value turned out to be 1.04.

`OCc1ccccc1O[C@@H]1O[C@H](CO)[C@@H](O)[C@H](O)[C@H]1O` [Salicin] gave a nucleus area z-score in assay [1] of 0.0923. In addition, in assay [2], the “total neurite length per nucleus (z-score)” value was -0.635. Further, the nucleus roundness z-score in assay [3] was -0.52. Further, the “KCl-induced FOS+/EGR-1+ double-positive nuclei fraction z-score” value in assay [4] is 0.0877.

The molecule `CC[C@H]1OC(=O)[C@H](C)[C@@H](O[C@H]2C[C@@](C)(OC)[C@@H](O)[C@H](C)O2)[C@H](C)[C@@H](O[C@@H]2O[C@H](C)C[C@H](N(C)C)[C@H]2O)[C@](C)(O)C[C@@H](C)CN(C)[C@H](C)[C@@H](O)[C@]1(C)O` [Azithromycin Dihydrate] had a nucleus area z-score in assay [1] of -0.604. Further, the “total neurite length per nucleus (z-score)” value in assay [2] was -0.788. Moreover, in assay [3], the nucleus roundness z-score is -0.346. The “KCl-induced FOS+/EGR-1+ double-positive nuclei fraction z-score” value in assay [4] is -1.12.

Consider `CCOC(=O)[C@H](CCc1ccccc1)N[C@H]1CS[C@H](c2cccs2)CN(CC(=O)O)C1=O` [Temocapril HCl], for which the nucleus area z-score in assay [1] was -0.0136. Further, the “total neurite length per nucleus (z-score)” value in assay [2] turned out to be 0.285. Besides, the nucleus roundness z-score in assay [3] was determined as 0.0282. Besides, the “KCl-induced FOS+/EGR-1+ double-positive nuclei fraction z-score” value in assay [4] worked out at 0.309.

As to `NC(=O)c1cccc2cn(-c3ccc([C@@H]4CCCNC4)cc3)nc12` [Niraparib (MK-4827) tosylate], the nucleus area z-score in assay [1] was found to be 0.8. For the same molecule, the “total neurite length per nucleus (z-score)” value in assay [2] was 0.251. This molecule displayed a nucleus roundness z-score in assay [3] of 1.18. The “KCl-induced FOS+/EGR-1+ double-positive nuclei fraction z-score” value in assay [4] worked out at 0.496.

In assay [1], `COc1ccc(NS(=O)(=O)c2sc3ccc(Cl)cc3c2C)cc1N1CCNCC1` returned a nucleus area z-score of -0.282. The “total neurite length per nucleus (z-score)” value in assay [2] came to 0.0202. Besides, the nucleus roundness z-score in assay [3] is -0.486. Also, the “KCl-induced FOS+/EGR-1+ double-positive nuclei fraction z-score” value in assay [4] worked out at 0.294.

As for `CCOC(CN1CCN(CC(C)C(=O)c2ccccc2)CC1)c1ccccc1` (stereo not drawn) [Eprazinone 2HCl], in assay [1], the nucleus area z-score is 0.0246. Further, the “total neurite length per nucleus (z-score)” value in assay [2] turned out to be 1.12. In assay [3], this molecule displayed a nucleus roundness z-score of 1.73. Also, in assay [4], the “KCl-induced FOS+/EGR-1+ double-positive nuclei fraction z-score” value worked out at 0.959.

In assay [1], `CCOC(=O)n1ccn(C)c1=S` [Carbimazole] yielded a nucleus area z-score of -0.488. Moreover, the “total neurite length per nucleus (z-score)” value in assay [2] stood at 0.185. This molecule showed a nucleus roundness z-score in assay [3] of 0.531. Also, the “KCl-induced FOS+/EGR-1+ double-positive nuclei fraction z-score” value in assay [4] is -0.0584.

In turn, `CC(=O)OCC(=O)[C@@]1(O)CC[C@H]2[C@@H]3CCC4=CC(=O)CC[C@]4(C)[C@H]3C(=O)C[C@@]21C` [Cortisone acetate] gave a nucleus area z-score in assay [1] of -0.233. Besides, the “total neurite length per nucleus (z-score)” value in assay [2] is 0.0622. The molecule also registered a nucleus roundness z-score in assay [3] of 0.852. The “KCl-induced FOS+/EGR-1+ double-positive nuclei fraction z-score” value in assay [4] is -0.387.

`Nc1cc(C(Cl)=C(Cl)Cl)c(S(N)(=O)=O)cc1S(N)(=O)=O` [Clorsulon] registered a nucleus area z-score in assay [1] of 1.37. In assay [2], the “total neurite length per nucleus (z-score)” value was -1.06. In addition, the nucleus roundness z-score in assay [3] was -1.53. Besides, the “KCl-induced FOS+/EGR-1+ double-positive nuclei fraction z-score” value in assay [4] is -0.395.

For `CN1CCN(C(c2ccccc2)c2ccccc2)CC1` [Cyclizine 2HCl], in assay [1], the nucleus area z-score worked out at 0.203. The “total neurite length per nucleus (z-score)” value in assay [2] was -0.921. Further, in assay [3], the nucleus roundness z-score is -0.0836. Further, the “KCl-induced FOS+/EGR-1+ double-positive nuclei fraction z-score” value in assay [4] was found to be 1.01.

Turning to `C[C@H](NC(=O)[C@@H](O)c1cc(F)cc(F)c1)C(=O)N[C@@H]1C(=O)N(C)c2ccccc2-c2ccccc21`, in assay [1], the nucleus area z-score was -2.04. Further, the “total neurite length per nucleus (z-score)” value in assay [2] is 0.826. The molecule also came in with a nucleus roundness z-score in assay [3] of 0.0909. Besides, the “KCl-induced FOS+/EGR-1+ double-positive nuclei fraction z-score” value in assay [4] came out at 0.223.
